The experiment addresses myc-hTRPC1-WT (human transient receptor potential channel 1) (human) (UniProt P48995). As to the kind of experiment: co-IP; lysates of Xenopus brain explants including spinal cords (embryos stage 26-28) expressing the tagged proteins; lysis buffer 1% Triton X-100, 150 mM NaCl, 10 mM Tris-Cl pH 7.4, 1 mM EDTA, 1 mM EGTA, 0.5% NP-40; antibody 3-4 h at 4°C, protein A/G agarose overnight at 4°C; anti-c-Myc and anti-GFP used for immunoprecipitation and immunoblotting. (In general: Immunoblotting shows a protein as a band on a membrane.)

Amino acid sequences for entries named in this document (tags omitted).
UniProt P48995: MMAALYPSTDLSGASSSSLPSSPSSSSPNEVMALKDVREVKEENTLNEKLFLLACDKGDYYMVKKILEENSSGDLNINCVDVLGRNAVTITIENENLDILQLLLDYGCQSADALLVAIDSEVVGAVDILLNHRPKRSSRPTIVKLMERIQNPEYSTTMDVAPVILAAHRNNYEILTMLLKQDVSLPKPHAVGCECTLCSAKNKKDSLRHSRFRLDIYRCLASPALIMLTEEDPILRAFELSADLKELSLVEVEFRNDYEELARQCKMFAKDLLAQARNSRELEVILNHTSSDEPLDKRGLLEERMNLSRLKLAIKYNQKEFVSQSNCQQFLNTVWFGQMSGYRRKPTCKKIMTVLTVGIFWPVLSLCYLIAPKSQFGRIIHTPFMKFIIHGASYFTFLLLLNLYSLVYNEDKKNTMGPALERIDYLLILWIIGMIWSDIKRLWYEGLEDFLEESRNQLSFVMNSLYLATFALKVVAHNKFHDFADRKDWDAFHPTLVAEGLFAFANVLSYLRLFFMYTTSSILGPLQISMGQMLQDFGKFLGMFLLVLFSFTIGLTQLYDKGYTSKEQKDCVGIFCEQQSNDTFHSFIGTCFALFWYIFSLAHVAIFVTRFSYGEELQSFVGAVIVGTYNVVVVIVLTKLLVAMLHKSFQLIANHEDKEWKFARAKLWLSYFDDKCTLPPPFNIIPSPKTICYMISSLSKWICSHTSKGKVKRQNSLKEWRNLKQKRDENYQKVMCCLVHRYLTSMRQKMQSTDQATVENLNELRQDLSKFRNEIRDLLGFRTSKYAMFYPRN

Results are given in words; binding and its absence hold for the method and conditions named. In cells and extracts the contact can be indirect. Binding calls can cover weak binding; strength is not graded here.

For “YFP-XSTIM1-WT (wild-type Xenopus stromal interaction molecule 1) (from UniProt A0JMU6)”, the binding result is “binds”.

(Values after PMC3907062.)
